Measurements reported in PubChem BioAssay AID1259254 (NCATS, 2017).

Screen: 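Genome-wide screen for genes that prevent DNA re-replication in cancer cells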 (primary screen)
Cells: human HCT116 colorectal cancer cells
Reagents: single siRNA against human genes
Time to read-out: 3 days
Detection: 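Nuclei stained with Hoechst and imaged; cell-cycle phase assigned by DNA content; G2 share scaled per plate, non-targeting siRNA 0%, GMNN siRNA 100%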
Reading the numbers: G2 robust z-score: higher = more G2 cells, more excess DNA replication
Rule for the call: 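An siRNA counts as active if its G2 robust z-score lies at least 5 MADs above the screen median; here such calls match roughly 38% of GMNN control or more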
The deposit covers about 59,000 reagents; shown is a random part of them. In the full data, about 1,550 (2.6%) got an active call. 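G2 share is only a proxy for re-replication; each gene was hit by three separate siRNAs, and active genes were retested.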 Reagents against one gene are numbered here. Not all columns of the deposit are shown. Reagent sequences are not shown. Not given: the amount of reagent.

Against TMEM161A #1, the values are G2 robust z-score -1.37; inactive.
Silencing of TMEM161A #2 resulted in: G2 robust z-score 0.125; inactive.
After knock-down of TMEM161A #3 the results were G2 robust z-score 0.0168; inactive.
For TUBA1A #1, the values are G2 robust z-score -0.477; inactive.
TUBA1A #2 scored G2 robust z-score -1.18; inactive.
For TUBA1A #3, the values are G2 robust z-score 0.921; inactive.
GOLGA8J #1 showed G2 robust z-score -0.0756; inactive.
With knock-down of GOLGA8J #2 the results were G2 robust z-score 1.23; inactive.
Silencing of GOLGA8J #3 resulted in: G2 robust z-score 0.947; inactive.
Against DST #1 the deposit lists G2 robust z-score -0.583; inactive.
For DST #2, the values are G2 robust z-score 0.0712; inactive.
After knock-down of DST #3, the record shows G2 robust z-score 0.453; inactive.
For EIF4ENIF1 #1, the entry reads G2 robust z-score -0.794; inactive.
Depletion of EIF4ENIF1 #2 resulted in: G2 robust z-score -0.95; inactive.
After knock-down of EIF4ENIF1 #3, the screen gave G2 robust z-score -0.881; inactive.

Already shown: entries from further up.
TUBA1A #2 | G2 robust z-score: -1.18; outcome: inactive
TUBA1A #3 | G2 robust z-score: 0.921; outcome: inactive
GOLGA8J #1 | G2 robust z-score: -0.0756; outcome: inactive
GOLGA8J #2 | G2 robust z-score: 1.23; outcome: inactive

More reagents follow:
After knock-down of TRIM68 #1, the screen gave G2 robust z-score 0.318; inactive.
Knock-down of TRIM68 #2 came out at: G2 robust z-score 0.606; inactive.
After knock-down of TRIM68 #3, the screen gave G2 robust z-score -0.189; inactive.
For GMEB2 #1, the values are G2 robust z-score 0.435; inactive.
Silencing of GMEB2 #2 came out at: G2 robust z-score 0.328; inactive.
GMEB2 #3 showed G2 robust z-score 3.9; inactive.
STAP2 #1 showed G2 robust z-score 1.27; inactive.
With knock-down of STAP2 #2 the results were G2 robust z-score -0.316; inactive.
After knock-down of STAP2 #3, the screen gave G2 robust z-score 0.684; inactive.
